PubChem BioAssay AID743121 | NCATS, 2013

- Test: 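Partners whose loss is lethal together with topoisomerase I blockade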 (primary screen)
- Cells: MDA-MB-231 cells, a human breast cancer line
- Reagent: single siRNA against human genes, 20 nM siRNA (0.8 pmol per well)
- Duration: 120 h (drug added 48 h after transfection, read 72 h later)
- Conditions: camptothecin 20 nM (about EC30) for 72 h; vehicle 0.1% DMSO in parallel plates
- Read-out: 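Cell viability by ATP luminescence (CellTiter-Glo) as % of non-targeting siRNA wells, and the log2 ratio of viability without drug over viability with camptothecin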
- Direction: log2 vehicle/camptothecin viability: higher = stronger sensitisation to camptothecin
- Rule for the call: 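Active genes have an RSA gene-level p-value below 0.001, computed from the ratios of their separate siRNAs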
In all, the deposit lists about 26,000 reagents; below is a random part of them. In the full data, 167 (0.63%) were called active. 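Calls are per gene from RSA p-values that are not deposited; an individual active-marked siRNA can sensitise only weakly.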 Not all columns of the deposit are shown.

Gene	PubChem SID	log2 vehicle/camptothecin viability	activity call
C1S (complement C1s)	SID164355826	-0.062	inactive
C1S (complement C1s)	SID164355827	0.0433	inactive
C1S (complement C1s)	SID164355829	-0.142	inactive
C1S (complement C1s)	SID164355830	0.775	inactive
MAP3K12 (mitogen-activated protein kinase kinase kinase 12)	SID164395468	1.25	inactive
MAP3K12 (mitogen-activated protein kinase kinase kinase 12)	SID164395469	-0.298	inactive
MAP3K12 (mitogen-activated protein kinase kinase kinase 12)	SID164395470	-0.414	inactive
MAP3K12 (mitogen-activated protein kinase kinase kinase 12)	SID164395472	-0.163	inactive
ALDH1L2 (aldehyde dehydrogenase 1 family member L2)	SID164578669	-0.372	inactive
ALDH1L2 (aldehyde dehydrogenase 1 family member L2)	SID164578670	-0.115	inactive
ALDH1L2 (aldehyde dehydrogenase 1 family member L2)	SID164578671	-0.172	inactive
ALDH1L2 (aldehyde dehydrogenase 1 family member L2)	SID164578672	-0.274	inactive
MARCO (macrophage receptor with collagenous structure)	SID164399207	-0.613	inactive
MARCO (macrophage receptor with collagenous structure)	SID164399208	-0.383	inactive
MARCO (macrophage receptor with collagenous structure)	SID164399211	-0.553	inactive
MARCO (macrophage receptor with collagenous structure)	SID164399212	-0.365	inactive
CTNND1 (catenin delta 1)	SID164360425	-0.206	inactive
CTNND1 (catenin delta 1)	SID164360427	-0.297	inactive
CTNND1 (catenin delta 1)	SID164360428	-0.283	inactive
CTNND1 (catenin delta 1)	SID164360429	-0.284	inactive
KIF7 (kinesin family member 7)	SID164672931	0.201	inactive
KIF7 (kinesin family member 7)	SID164672934	0.0713	inactive
KIF7 (kinesin family member 7)	SID164672935	-0.272	inactive
KIF7 (kinesin family member 7)	SID164672936	-0.409	inactive
PIK3CD	SID164380797	1.22	inactive
PIK3CD	SID164380798	-0.361	inactive
PIK3CD	SID164380800	-0.019	inactive
PIK3CD	SID164380801	-0.283	inactive

Copied from the list.
Under “activity call”, ALDH1L2 (aldehyde dehydrogenase 1 family member L2) [SID164578672] shows inactive
For “activity call”, MAP3K12 (mitogen-activated protein kinase kinase kinase 12) [SID164395472] is entered as inactive

Next reagents follow:
Gene	PubChem SID	log2 vehicle/camptothecin viability	activity call
ITGB3BP (integrin subunit beta 3 binding protein)	SID164447940	0.0745	inactive
ITGB3BP (integrin subunit beta 3 binding protein)	SID164447943	-0.0111	inactive
ITGB3BP (integrin subunit beta 3 binding protein)	SID164447946	-0.401	inactive
DEFB4A (defensin beta 4A)	SID164361423	-0.515	inactive
DEFB4A (defensin beta 4A)	SID164361424	0.316	inactive
DEFB4A (defensin beta 4A)	SID164361425	-0.00869	inactive
DEFB4A (defensin beta 4A)	SID164361427	-0.137	inactive
PLSCR1 (phospholipid scramblase 1)	SID164381285	-0.147	inactive
PLSCR1 (phospholipid scramblase 1)	SID164381288	-0.272	inactive
PLSCR1 (phospholipid scramblase 1)	SID164381290	-0.776	inactive
PLSCR1 (phospholipid scramblase 1)	SID164381291	0.00354	inactive
SLC24A5	SID164614931	0.0115	inactive
SLC24A5	SID164614932	-0.111	inactive
SLC24A5	SID164614933	0.256	inactive
SLC24A5	SID164614934	0.151	inactive
CAVIN3 (caveolae associated protein 3)	SID164559386	-0.079	inactive
CAVIN3 (caveolae associated protein 3)	SID164559388	-0.383	inactive
CAVIN3 (caveolae associated protein 3)	SID164559389	0.0778	inactive
CAVIN3 (caveolae associated protein 3)	SID164559390	-0.422	inactive
